Measured values: article PMC5663877
No constants are given. Whether binding was seen depends on the method and setting. Binding seen in cells or lysates may run through a third protein. Some binding calls cover weakened binding; strength is not graded here. Tags and fused reporters may be left off the sequences shown.

Amino acid sequences for entries named in this document (tags omitted).
UniProt Q03135: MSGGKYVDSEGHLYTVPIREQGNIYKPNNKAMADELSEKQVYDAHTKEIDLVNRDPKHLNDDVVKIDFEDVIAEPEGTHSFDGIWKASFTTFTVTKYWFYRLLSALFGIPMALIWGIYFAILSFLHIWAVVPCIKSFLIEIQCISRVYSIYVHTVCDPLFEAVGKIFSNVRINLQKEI

Target: T1, Cavin-2-mEGFP (UniProt O95810)
T1 sequence: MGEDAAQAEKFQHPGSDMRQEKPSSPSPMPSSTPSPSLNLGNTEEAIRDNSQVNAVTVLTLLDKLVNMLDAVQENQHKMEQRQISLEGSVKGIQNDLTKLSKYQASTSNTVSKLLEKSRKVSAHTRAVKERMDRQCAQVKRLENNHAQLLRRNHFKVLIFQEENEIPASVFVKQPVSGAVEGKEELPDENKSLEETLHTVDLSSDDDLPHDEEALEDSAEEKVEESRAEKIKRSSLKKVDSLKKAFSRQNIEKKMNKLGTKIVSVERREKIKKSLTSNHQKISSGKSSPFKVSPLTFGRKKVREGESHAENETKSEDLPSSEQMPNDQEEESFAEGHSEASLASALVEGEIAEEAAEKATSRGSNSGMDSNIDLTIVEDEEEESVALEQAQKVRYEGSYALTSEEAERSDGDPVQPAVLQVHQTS
Assay: co-IP; Cavin-2-GFP or GFP expressed in HPMEC-ST1.6R; immunoprecipitation with anti-GFP antibody from whole cell lysate at the basal state; RIPA buffer (10 mM Tris-HCl, 1 mM EDTA, 1% Nonidet P-40, 0.1% sodium deoxycholate, 140 mM NaCl); blots for eNOS, Caveolin-1 and GFP

binding: binds
Substance: Caveolin-1 (from UniProt Q03135 1-178)
